# Earlier results as cited in patent US7713923B2, “Self-assembling peptides incorporating modifications and methods of use thereof” (Massachusetts Institute of Technology, priority 2003, dated 2010).
# Entries after “also recorded” stand apart in the source; their conditions may differ. At least one peptide structure holds a part that was inferred or is arguable (an end, a ring closure or a residue). Where no end group is shown, it is not given here.
# Tested on: PC12 cells, endothelial cells, heparin
# Details: cited from earlier work
row,Substance,Biological activity
1,TAGSCLRKFSTM [TAGSCLRKFSTM],Binds to heparin; also recorded: adhesion and spreading
2,YIGSR [YIGSR],"Cell adhesion,; also recorded: cell migration,; also recorded: endothelial tubular"
3,RYVVLPR [RYVVLPR],Cell adhesion
